Values from PubChem BioAssay AID1259424 (University of Nebraska Medical Center, 2018).
The whole screen tested about 14,000 reagents; shown is a random part of them. 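Higher correlation or smaller distance means closer resemblance to KSR1 loss; control wells, including KSR1 knockdowns, recur on many plates.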 Reagents against one gene are numbered here. Reagent sequences are not shown. Not given: the time to read-out.

Aim: 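Find knockdowns that reproduce the expression shifts seen after KSR1 loss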 (primary screen)
Cells: human HCT116 colon cancer cells
Reagent: siRNA pool against human genes, 50 nM
Measured: 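Log2 levels of six mRNAs (branched-DNA multiplex), adjusted by two reference genes and the non-targeting median, then scored against the average KSR1 knockdown pattern as Pearson r and euclidean distance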
Scale: mean correlation with KSR1 profile and KSR1 correlation: higher = expression change more like KSR1 knockdown; mean distance from KSR1 profile: higher = expression change less like KSR1 knockdown

Target gene | pool no. | mean correlation with KSR1 profile | mean distance from KSR1 profile | KSR1 correlation, replicate 1 | KSR1 correlation, replicate 2 | KSR1 correlation, replicate 3
PLEKHM2 (pleckstrin homology and RUN domain containing M2) | 1 | -0.464 | 2.1 | -0.61 | -0.358 | -0.276
INTS2 (integrator complex subunit 2) | 1 | -0.344 | 4.07 | -0.375 | -0.275 | -0.268
MRPS10 (mitochondrial ribosomal protein S10) | 1 | -0.269 | 1.06 | -0.475 | -0.0688 | -0.435
PACSIN2 (protein kinase C and casein kinase substrate in neurons 2) | 1 | -0.185 | 0.986 | -0.504 | 0.125 | -0.0239
ACKR1 (atypical chemokine receptor 1 (Duffy blood group)) | 1 | 0.452 | 1.61 | 0.364 | 0.593 | 0.276
GPATCH4 (G-patch domain containing 4 (gene/pseudogene)) | 1 | 0.00716 | 2.06 | 0.38 | 0.301 | -0.135
PER3 (period circadian regulator 3) | 1 | 0.399 | 2.52 | 0.429 | 0.325 | 0.596
RBMS1 (RNA binding motif single stranded interacting protein 1) | 1 | 0.0926 | 2.23 | 0.122 | -0.156 | 0.0868
RBMS1 (RNA binding motif single stranded interacting protein 1) | 2 | 0.659 | 1.07 | 0.57 | 0.698 | 0.54
CCNT1 (cyclin T1) | 1 | -0.0468 | 1.9 | -0.125 | -0.117 | -0.12
SIN3A (SIN3 transcription regulator family member A) | 1 | 0.0742 | 3.08 | -0.000366 | 0.122 | -0.0378
SNTB2 (syntrophin beta 2) | 1 | -0.0411 | 2.02 | -0.214 | -0.0963 | 0.332
REST (RE1 silencing transcription factor) | 1 | -0.108 | 2.3 | 0.0113 | 0.219 | -0.17
SELENBP1 (selenium binding protein 1) | 1 | 0.727 | 1.49 | 0.685 | 0.712 | 0.658
PRKX (protein kinase cAMP-dependent X-linked catalytic subunit) | 1 | -0.208 | 2.3 | 0.0372 | -0.222 | -0.332
NFKBIL1 (NFKB inhibitor like 1) | 1 | -0.43 | 3.45 | -0.492 | -0.345 | -0.546
CYP26B1 (cytochrome P450 family 26 subfamily B member 1) | 1 | -0.212 | 1.84 | -0.067 | -0.727 | -0.727
RPL41 (ribosomal protein L41) | 1 | -0.349 | 1.43 | -0.316 | -0.417 | 0.084
NECTIN2 (nectin cell adhesion molecule 2) | 1 | -0.0307 | 2.11 | 0.0315 | -0.0347 | -0.211
NRF1 (nuclear respiratory factor 1) | 1 | -0.399 | 3.09 | -0.169 | -0.422 | -0.344
FPR1 (formyl peptide receptor 1) | 1 | 0.838 | 0.983 | 0.821 | 0.851 | 0.822
SLC41A2 | 1 | 0.603 | 1.55 | 0.419 | 0.51 | 0.672
FKBP15 (FKBP prolyl isomerase family member 15) | 1 | -0.415 | 1.92 | -0.313 | -0.502 | -0.32
OR2S2 (olfactory receptor family 2 subfamily S member 2) | 1 | 0.577 | 1.77 | 0.667 | 0.659 | 0.52
GADD45G (growth arrest and DNA damage inducible gamma) | 1 | 0.101 | 1.2 | 0.409 | -0.345 | 0.083
CCNL1 (cyclin L1) | 1 | 0.73 | 2.34 | 0.159 | 0.555 | 0.634
SRD5A2 (steroid 5 alpha-reductase 2) | 1 | 0.184 | 1.98 | 0.201 | 0.144 | 0.192
YME1L1 (YME1 like 1 ATPase) | 1 | -0.0691 | 2.21 | -0.0527 | -0.0441 | -0.231
ANXA6 (annexin A6) | 1 | -0.52 | 1.94 | -0.715 | -0.523 | -0.523
DLX6 (distal-less homeobox 6) | 1 | 0.863 | 0.912 | 0.812 | 0.926 | 0.0762
KCNAB1 | 1 | -0.197 | 2.02 | -0.268 | -0.19 | -0.237
NME7 (NME/NM23 family member 7) | 1 | -0.179 | 2.94 | 0.0951 | -0.112 | -0.267
NXF2 (nuclear RNA export factor 2) | 1 | -0.464 | 3.33 | -0.387 | -0.324 | -0.54
TMEM87A (transmembrane protein 87A) | 1 | -0.0799 | 1.78 | 0.118 | -0.225 | -0.215
